Measurements reported in PubChem BioAssay AID602196 (INSERM, 2012)
The deposit covers about 23,000 reagents; this is an unselected part. Of all reagents, 455 (2%) were called active. 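Active includes both protection and sensitisation; some change values fall well beyond the stated -50 to +50 range.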 A number with no mark means an inactive call. Further read-outs or replicates are left out here. Not given: the amount of reagent.

Assay: 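Knock-downs that protect lung cancer cells from cisplatin or sensitise them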
Cells: human A549 lung cancer cells
Reagent: siRNA pair against human genes
Time to read-out: 48 h transfection before cisplatin; time from cisplatin to read-out not stated
Conditions: cisplatin at a dose killing half of control-siRNA cells; exact dose and duration not given
Read-out: 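Cisplatin cell death as a shift from the 50% death seen with control siRNA; siRNAs toxic or growth-blocking alone scored 0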
Reading the numbers: two-siRNA summed score (-2 to +2): higher = both siRNAs protect from cisplatin killing; -2 means both sensitise; mean protection from cisplatin (shift in death): higher = protection from cisplatin killing
Active means: 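siRNAs harmful alone (LDH or WST-1) get 0; others get +1 for less and -1 for more cisplatin killing; genes are active when the two siRNAs give the same sign, summing to ±2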
Calls: active = both siRNAs shift cisplatin killing the same way; inactive = no consistent shift, or siRNA harmful alone

Silencing of SCCPDH gave: two-siRNA summed score (-2 to +2) = 0; mean protection from cisplatin (shift in death) (%) = -2.1.
TOM1L2 gave two-siRNA summed score (-2 to +2) = 0; mean protection from cisplatin (shift in death) (%) = 6.
For RNASE2, the values are two-siRNA summed score (-2 to +2) = 0; mean protection from cisplatin (shift in death) (%) = -16.2.
GRHPR showed two-siRNA summed score (-2 to +2) = 0; mean protection from cisplatin (shift in death) (%) = -34.4.
After knock-down of ZNF318, the screen gave two-siRNA summed score (-2 to +2) = 0; mean protection from cisplatin (shift in death) (%) = 16.
HLCS showed two-siRNA summed score (-2 to +2) = 0; mean protection from cisplatin (shift in death) (%) = -13.3.
LYPD3 showed two-siRNA summed score (-2 to +2) = 0; mean protection from cisplatin (shift in death) (%) = -6.1.
CGREF1 showed two-siRNA summed score (-2 to +2) = 1; mean protection from cisplatin (shift in death) (%) = 11.2.
For PYGO1, the values are two-siRNA summed score (-2 to +2) = -2 (active); mean protection from cisplatin (shift in death) (%) = -29.
Silencing of METTL2A came out at: two-siRNA summed score (-2 to +2) = -1; mean protection from cisplatin (shift in death) (%) = -5.5.
RNF216 scored two-siRNA summed score (-2 to +2) = 0; mean protection from cisplatin (shift in death) (%) = -3.4.
For LINC03042, the values are two-siRNA summed score (-2 to +2) = 0; mean protection from cisplatin (shift in death) (%) = 1.1.

Laid out differently: 2 of the entries above.
{"gene symbol":"SCCPDH","two-siRNA summed score (-2 to +2)":0,"mean protection from cisplatin (shift in death) (%)":-2.1}
{"gene symbol":"TOM1L2","two-siRNA summed score (-2 to +2)":0,"mean protection from cisplatin (shift in death) (%)":6}
